Data as given in PubChem BioAssay AID1224826 (NIAID, 2016).
Test: 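Knock-downs that raise or lower Tnf reporter signal after endotoxin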 (primary screen). System: RAW264.7 G9 macrophages from mouse bearing reporters for p65 (GFP) and the Tnf promoter (mCherry). Reagents: siRNA pool against mouse genes, 100 nM. Timing: 16 h of LPS stimulation, after 2 days of siRNA transfection. Conditions: bacterial lipopolysaccharide (Salmonella minnesota R595), 10 ng/ml. Measured: 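Nuclear mCherry signal of the Tnf promoter reporter measured by imaging after background removal, scaled to each plate median and turned into robust z-scores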. Scale: Tnf reporter robust z-score: higher = stronger Tnf promoter reporter signal after LPS. Hit rule: 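Called active when robust z-score is at most -1.3, matching the median of the Tlr4 knock-down control, or over 3; control wells and wells with under 50 cells never active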. Calls: active = Tnf reporter clearly lowered or raised; inactive = no clear change in Tnf reporter.
Here is one part, drawn at random, of about 17,000 reagents tested. About 1,110 of them (6.6%) count as active. 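Active means lowered or raised reporter signal; replicate intensities are raw and not normalised per plate.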 Entries without a mark were called inactive. Further read-outs or replicates are left out here.

Gp9 showed Tnf reporter robust z-score 0.75; fewer than 50 cells in well enough cells in well. Ina showed Tnf reporter robust z-score 0.72; fewer than 50 cells in well enough cells in well. Uckl1 scored Tnf reporter robust z-score -1.01; fewer than 50 cells in well enough cells in well. After knock-down of P4hb, the screen gave Tnf reporter robust z-score -0.91; fewer than 50 cells in well enough cells in well. Sox6 showed fewer than 50 cells in well fewer than 50 cells per well; well left out of calls. Against Ammecr1l the deposit lists Tnf reporter robust z-score -1.75 (active); fewer than 50 cells in well enough cells in well.

Against Slc23a1 the deposit lists Tnf reporter robust z-score 0.38; fewer than 50 cells in well enough cells in well. After knock-down of Cyp2a4, the screen gave Tnf reporter robust z-score -0.57; fewer than 50 cells in well enough cells in well. 4930556L07Rik scored fewer than 50 cells in well fewer than 50 cells per well; well left out of calls. Adgrl1 showed Tnf reporter robust z-score -0.21; fewer than 50 cells in well enough cells in well. Depletion of Insyn1 resulted in: Tnf reporter robust z-score -0.25; fewer than 50 cells in well enough cells in well. Insc showed fewer than 50 cells in well fewer than 50 cells per well; well left out of calls.

2 entries from above in another layout.
Ina
- Tnf reporter robust z-score: 0.72
- fewer than 50 cells in well: enough cells in well

Uckl1
- Tnf reporter robust z-score: -1.01
- fewer than 50 cells in well: enough cells in well
